Experiment: Serum stability assay
Assay type: in vitro ADME
Conditions: 25% human serum in DPBS, 37° C., read-out: peptide remaining intact

C[C@@H](NC(=O)[C@H](Cc1ccccc1)NC(=O)[C@@H](CCCNC(=N)N)NC(=O)[C@H](CCCN)NC(=O)[C@@H]1CNC(=O)c2cc3cc(c2)C(=O)N[C@H](Cc2ccc4ccccc4c2)C(=O)N[C@@H](CO)C(=O)N[C@@H](CC(N)=O)C(=O)N[C@H](Cc2ccc4ccccc4c2)C(=O)N[C@@H](c2ccccc2)C(=O)N[C@@H](CCCCNC3=O)C(=O)N[C@H](Cc2ccccc2)C(=O)N[C@@H](CCC(N)=O)C(=O)N[C@H](CCCNC(=N)N)C(=O)N[C@@H](CCCNC(=N)N)C(=O)N1)C(N)=O [Peptide B4-27]
remaining at 24 h, 100 μM: ~85%

Reference: patent publication US20240368224A1 (priority 2021, published 2024)
